SMILES strings stand for the structures.

The subject of one data set is bindweed. Nature of the data set: Herbicidal activity test against upland field weeds (foliar treatment test). Type of data set: in vivo. As to conditions: 50 g ai/ha, symptom letters. Also on record: key: B; Stunting; C; Desiccation; I; Chlorosis; N; Bleaching. As to the method: (§1) Experimental Example 1: Herbicidal Activity Test Against Upland Field Weeds (Foliar Treatment Test) Foliar treatment was performed as follows: After filling a square plastic pot having a surface area of 350 cm^2 with horticultural soil, seeds (10˜15 grains) or rootstocks (2 pieces) of 5 kinds of grassy weeds of sorghum, barnyard grass, quack grass, crabgrass, fall panicum, and 5 kinds of broadleaf weeds of black nightshade, indian jointvetch, velvetleaf, cocklebur, bindweed, which had been stored in a low temperature (6° C.), were sown. After growing for a certain period in greenhouse conditions (average temperature 30±5° C., light/dark=14/10 hours), test compound solutions were made by diluting with a preparation solution (including 50% acetone, 0.1% Tween-20) so that the final treatment amount of the test compounds was 50 or 75 g a.i./ha. The prepared test compound solution was used for treating foliage by hand-spraying 14 mL per pot in a fume hood. After the treatment, it was managed under the same greenhouse conditions as above, and after 14 days (after 21 days if necessary), the external symptoms and efficacy were investigated according to the scale of 0 (no control) to 100 (complete control). The results of Table 7 were obtained by evaluating weed control value to the untreated control by conducting visual assessment.
Regarding `CC(=O)N(C(=O)c1ccc(C(F)(F)F)nc1COCc1nnn(C)n1)c1nnnn1C` [Compound No. 2-67, N-acetyl-N-(1-methyl-1H-tetrazol-5-yl)-2-(((2-methyl-2H-tetrazol-5-yl)methoxy)methyl)-6-(trifluoromethyl)nicotinamide], the “External symptoms, Bindweed” value is recorded as “N”.
Same read-out and setting: under `C=C(C)c1nc(COCc2nc(C(F)(F)F)ccc2C(=O)Nc2nnnn2C)nn1C` [Compound No. 2-128, N-(1-methyl-1H-tetrazol-5-yl)-2-(((1-methyl-5-(prop-1-en-2-yl)-1H-1,2,4-triazol-3-yl)methoxy)methyl)-6-(trifluoromethyl)nicotinamide] stands “N”.
Turning to `COc1nc(COCc2nc(C(F)(F)F)ccc2C(=O)Nc2nnnn2C)nn1C` [Compound No. 2-129, 2-(((5-methoxy-1-methyl-1H-1,2,4-triazol-3-yl)methoxy)methyl)-N-(1-methyl-1H-tetrazol-5-yl)-6-(trifluoromethyl)nicotinamide], the “External symptoms, Bindweed” value is listed as “N”.
On the same count and under the same terms, then `Cn1nnc(COCc2nc(C(F)(F)F)ccc2C(=O)N(c2nnnn2C)S(C)(=O)=O)n1` [Compound No. 2-69, N-(1-methyl-1H-tetrazol-5-yl)-2-(((2-methyl-2H-tetrazol-5-yl)methoxy)methyl)-N-(methylsulfonyl)-6-(trifluoromethyl)nicotinamide], with “N”; and `C=CCn1nnnc1NC(=O)c1ccc(C(F)(F)F)nc1COCc1nc(C(F)(F)F)n(C)n1` [Compound No. 2-121, N-(1-allyl-1H-tetrazol-5-yl)-2-(((1-methyl-5-(trifluoromethyl)-1H-1,2,4-triazol-3-yl)methoxy)methyl)-6-(trifluoromethyl)nicotinamide], with “N”.
In the case of `Cn1nnc(COCc2nc(C(F)(F)F)ccc2C(=S)Nc2nnnn2C)n1` [Compound No. 2-106, N-(1-methyl-1H-tetrazol-5-yl)-2-(((2-methyl-2H-tetrazol-5-yl)methoxy)methyl)-6-(trifluoromethyl)pyridin-3-carbothioamide], the “External symptoms, Bindweed” value is listed as “N”.
`Cn1nnnc1NC(=O)c1ccc(C(F)(F)F)nc1COCc1nnnn1C(F)F` [Compound No. 1-85, 2-(((1-(difluoromethyl)-1H-tetrazol-5-yl)methoxy)methyl)-N-(1-methyl-1H-tetrazol-5-yl)-6-(trifluoromethyl)nicotinamide]: the “External symptoms, Bindweed” value is on record as “N”.
The same measure, in the same setting: under `Cn1cnc(COc2nc(C(F)(F)F)ccc2C(=O)Nc2nnnn2C)n1` [Compound No. 2-43, 2-((1-methyl-1H-1,2,4-triazol-3-yl)methoxy)-N-(1-methyl-1H-tetrazol-5-yl)-6-(trifluoromethyl)nicotinamide] stands “I”.
Same read-out and setting: then `Cn1nc(COCc2nc(C(F)(F)F)ccc2C(=O)Nc2nnnn2C)nc1Br` [Compound No. 2-136, 2-(((5-bromo-1-methyl-1H-1,2,4-triazol-3-yl)methoxy)methyl)-N-(1-methyl-1H-tetrazol-5-yl)-6-(trifluoromethyl)nicotinamide], with “N”; and `C=Cc1nc(COCc2nc(C(F)(F)F)ccc2C(=O)Nc2nnnn2C)nn1C` [Compound No. 2-127, N-(1-methyl-1H-tetrazol-5-yl)-2-(((1-methyl-5-vinyl-1H-1,2,4-triazol-3-yl)methoxy)methyl)-6-(trifluoromethyl)nicotinamide], with “N”; and `CCN(Cc1nnn(C)n1)Cc1nc(C(F)(F)F)ccc1C(=O)Nc1nnnn1C` [Compound No. 2-94, 2-((ethyl((2-methyl-2H-tetrazol-5-yl)methyl)amino)methyl)-N-(1-methyl-1H-tetrazol-5-yl)-6-(trifluoromethyl)nicotinamide], with “N”.
On the same count and under the same terms, then `CCCn1nnnc1NC(=O)c1ccc(C(F)(F)F)nc1COCc1nc(C(F)(F)F)n(C)n1` [Compound No. 2-120, 2-(((1-methyl-5-(trifluoromethyl)-1H-1,2,4-triazol-3-yl)methoxy)methyl)-N-(1-propyl-1H-tetrazol-5-yl)-6-(trifluoromethyl)nicotinamide], with “N”; and `CON(Cc1nnn(C)n1)Cc1nc(C(F)(F)Cl)ccc1C(=O)Nc1nnnn1C` [Compound No. 2-79, 6-(chlorodifluoromethyl)-2-((methoxy((2-methyl-2H-tetrazol-5-yl)methyl)amino)methyl)-N-(1-methyl-1H-tetrazol-5-yl)nicotinamide], with “N”.

The subject of a further data set is crabgrass. The description is as above. Type of data set: in vivo. Also on record: key: B; Stunting; C; Desiccation; I; Chlorosis; N; Bleaching. As to conditions: 50 g ai/ha, symptom letters. As to the method: as §1
As to `CN(Cc1nnn(C)n1)Cc1nc(C(F)(F)F)ccc1C(=O)Nc1nnnn1C` [Compound No. 2-93, 2-((methyl((2-methyl-2H-tetrazol-5-yl)methyl)amino)methyl)-N-(1-methyl-1H-tetrazol-5-yl)-6-(trifluoromethyl)nicotinamide], the “External symptoms, Crabgrass” value is “N”.

The test system of the next data set is quack grass. The description is as above. It counts as in vivo. Also on record: key: B; Stunting; C; Desiccation; I; Chlorosis; N; Bleaching. As to conditions: 50 g ai/ha, symptom letters. The protocol:
as §1
As to `Cn1nnnc1COc1nc(C(F)(F)F)ccc1C(=S)Nc1nnnn1C` [Compound No. 1-43, N-(1-methyl-1H-tetrazol-5-yl)-2-((1-methyl-1H-tetrazol-5-yl)methoxy)-6-(trifluoromethyl)pyridin-3-carbothioamide], the “External symptoms, quack grass” value was “N”.
On the same count and under the same terms, then `Cn1ncnc1COc1nc(C(F)(F)F)ccc1C(=O)Nc1nnnn1C` [Compound No. 1-45, 2-((1-methyl-1H-1,2,4-triazol-5-yl)methoxy)-N-(1-methyl-1H-tetrazol-5-yl)-6-(trifluoromethyl)nicotinamide], with “N”; and `Cn1nnc(C[S+]([O-])Cc2nc(C(F)(F)F)ccc2C(=O)Nc2nnnn2C)n1` (centres unmarked) [Compound No. 2-104, N-(1-methyl-1H-tetrazol-5-yl)-2-((((2-methyl-2H-tetrazol-5-yl)methyl)sulfinyl)methyl)-6-(trifluoromethyl)nicotinamide], with “N”; and `CN(Cc1nnnn1C)c1nc(C(F)(F)F)ccc1C(=O)Nc1nnnn1C` [Compound No. 1-27, 2-(methyl((1-methyl-1H-tetrazol-5-yl)methyl)amino)-N-(1-methyl-1H-tetrazol-5-yl)-6-(trifluoromethyl)nicotinamide], with “C”.

Another data set relates to sorghum. The data set is described as above. It counts as in vivo. As to conditions: 50 g ai/ha, symptom letters. Set-up: key: B; Stunting; C; Desiccation; I; Chlorosis; N; Bleaching. As to the method:
as §1
For `Cn1nnc(COCc2nc(C(F)(F)Cl)ccc2C(=O)Nc2nnnn2C)n1` [Compound No. 2-78, 6-(chlorodifluoromethyl)-N-(1-methyl-1H-tetrazol-5-yl)-2-(((2-methyl-2H-tetrazol-5-yl)methoxy)methyl)nicotinamide], the “External symptoms, Sorghum” value was “N”.

The subject of another data set is fall panicum. The description is as above. It counts as in vivo. Also on record: key: B; Stunting; C; Desiccation; I; Chlorosis; N; Bleaching. The settings on record: 50 g ai/ha, symptom letters. The protocol:
as §1
With `C=Cc1nc(COCc2nc(C(F)(F)F)ccc2C(=O)Nc2nnnn2C)nn1C` [Compound No. 2-127, N-(1-methyl-1H-tetrazol-5-yl)-2-(((1-methyl-5-vinyl-1H-1,2,4-triazol-3-yl)methoxy)methyl)-6-(trifluoromethyl)nicotinamide], the “External symptoms, Fall panicum” value is given as “B”.

The values above are taken from US12495798B2, “Nicotinamide compound and herbicidal composition comprising compound” (KOREA RESEARCH INSTITUTE OF CHEMICAL TECHNOLOGY, priority 2019, dated 2025).
